{"source": "patent US20200200735A9", "about": "“SYSTEM AND METHOD FOR DETECTING THERAPEUTIC AGENTS TO MONITOR ADHERENCE TO A TREATMENT REGIMEN” (UrSure, Inc., priority 2016, published 2020)", "experiment": "Cohort 3: 16 week study of HIV negative subjects on daily PrEP, TFV in plasma and urine (LC-MS/MS)", "format": "in vivo, human", "settings": "Cohort 3, daily PrEP", "method": "3 cohort studies were conducted to assess a system for detection of the active metabolite tenofovir (TFV) of the prodrug nucleotide reverse transcriptase inhibitor (NRTI) tenofovir disoproxil fumarate (TDF). Cohort 1: a cross sectional study of 10 HIV positive subjects with undetectable HIV viral loads on a TDF-based regimen; Cohort 2: a single dose study of Truvada in 10 healthy subjects to evaluate TFV clearance in plasma and urine over 7 days; Cohort 3: a 16 week study of 10 HIV negative subjects receiving daily PrEP to evaluate concordance between plasma and urine over time.\nA semi-quantitative liquid chromatography-tandem mass spectrometry (LC-MS/MS) urine assay was developed for detection of TFV with high sensitivity/specificity. […] To evaluate the qualitative relationship of urine TFV levels to plasma levels, the levels of TFV in the urine and plasma from Cohort 1 was evaluated. […] In addition, the TFV concentration was 3-4 logs higher in urine than plasma (FIG. 2). In cohort 2, TFV was detected for >7 days in urine and 2-4 days in plasma after a single dose of Truvada™ (FIG. 3). […]\nA semi-quantitative liquid chromatography-tandem mass spectrometry (LC-MS/MS) urine assay with high sensitivity and specificity for TFV allowed us to determine TFV concentrations in log categories between <10 ng/L to >10,000 ng/mL. […]", "note": "For at least one compound, name, drawing or mass did not settle the structure.", "data": [{"smiles": "C[C@H](Cn1cnc2c(N)ncnc21)OCP(=O)(O)O", "note": "[TFV, Tenofovir]", "values": [{"measurement": "plasma TFV concentration range", "value": ">10 ng/ml to >100"}, {"measurement": "urine TFV concentration range", "value": ">10 to >10,000"}]}]}
